Data as given in PubChem BioAssay AID504791 (Drosophila RNAi Screening Center, 2011).

- Purpose: 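Genes of the fly required for silencing by miRNA, siRNA or endo-siRNA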 (primary screen)
- Cell system: Drosophila S2-derived reporter cells
- Reagents: long dsRNA against Drosophila genes, about 150-250 ng dsRNA per well (siRNA assay); about 80-120 ng (miRNA assay)
- Timing: about 5 days (siRNA assay); about 4 days (miRNA assay)
- Conditions: copper sulfate induction of reporters: 25 µM (siRNA assay); 200 mM stated (miRNA assay), 1-2 days before reading
- Read-out: 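Per-well ratio of Renilla over firefly light, expressed relative to that plate's average ratio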
- Reading the numbers: siRNA reporter hit score: higher = 3 marks a strong hit with raised ratio; -3 a strong hit with lowered ratio
- Units: stable assay Renilla, run 1 in luminescence; stable assay firefly, run 1 in luminescence
- Rule for the call: 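a well was a first-pass pick when its plate-scaled ratio rose above 1.5 (siRNA assay) or 1.6 (miRNA assay), or dropped below 0.6; a gene counted only if two separate dsRNAs agreed on retest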
In all, the deposit lists about 23,000 reagents; below is a random part of those with a known target gene and a result. Of all reagents, 199 (0.86%) are marked active. 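Plate-scaled ratios behind the calls are not deposited; printed light signals are raw; many rows marked increased or decreased are still called inactive.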 A plus sign joins genes that one reagent is predicted to hit. Reagent sequences are not shown.

Silencing of Lamtor5 [DRSC18491] resulted in: stable assay Renilla, run 1 = 8147; stable assay firefly, run 1 = 4.33e5; inactive.
Knock-down of CG7924 [DRSC10931] resulted in: stable assay Renilla, run 1 = 9293; stable assay firefly, run 1 = 3.28e5; inactive.
Against ACXD [DRSC07843] the deposit lists stable assay Renilla, run 1 = 5760; stable assay firefly, run 1 = 3.26e5; inactive.
Against CG14739 [DRSC14959], the values are stable assay Renilla, run 1 = 5667; stable assay firefly, run 1 = 3.91e5; inactive.
With knock-down of t-cup [DRSC01254], the record shows stable assay Renilla, run 1 = 5722; stable assay firefly, run 1 = 4.66e5; inactive.
CG14427 [DRSC17921] gave stable assay Renilla, run 1 = 5932; stable assay firefly, run 1 = 3.70e5; inactive.
Silencing of CG16995 [DRSC00480] gave: stable assay Renilla, run 1 = 8289; stable assay firefly, run 1 = 4.65e5; inactive.
For CG31835 + CG42585 [DRSC01412] the deposit lists stable assay Renilla, run 1 = 5611; stable assay firefly, run 1 = 4.52e5; inactive.
Silencing of CG8745 [DRSC11033] gave: stable assay Renilla, run 1 = 9312; stable assay firefly, run 1 = 4.53e5; inactive.
With knock-down of CG8745 [DRSC11034], the screen gave stable assay Renilla, run 1 = 7167; stable assay firefly, run 1 = 5.50e5; inactive.
Knock-down of CG8745 [DRSC22741] resulted in: stable assay Renilla, run 1 = 2171; stable assay firefly, run 1 = 2.54e5; inactive.
Knock-down of fs(1)K10 [DRSC18775] came out at: stable assay Renilla, run 1 = 6842; stable assay firefly, run 1 = 3.06e5; inactive.

A portion from the list above, for reference:
CG14427 [DRSC17921] | stable assay Renilla, run 1: 5932; stable assay firefly, run 1: 3.70e5; Outcome: inactive
CG16995 [DRSC00480] | stable assay Renilla, run 1: 8289; stable assay firefly, run 1: 4.65e5; Outcome: inactive

The results go on:
Against CG40948 (retired record) [DRSC20944], the values are stable assay Renilla, run 1 = 4812; stable assay firefly, run 1 = 4.53e5; inactive.
Against CG6788 [DRSC20007], the values are stable assay Renilla, run 1 = 5920; stable assay firefly, run 1 = 3.91e5; inactive.
AGO1 [DRSC05912] scored miRNA reporter change reporter ratio raised past the hit cutoff; stable assay Renilla, run 1 = 5932; stable assay firefly, run 1 = 2.62e5; inactive.
Knock-down of Pgm2a [DRSC07068] resulted in: stable assay Renilla, run 1 = 7346; stable assay firefly, run 1 = 3.83e5; inactive.
With knock-down of sha [DRSC06331], the screen gave stable assay Renilla, run 1 = 6708; stable assay firefly, run 1 = 3.87e5; inactive.
CG2841 [DRSC17699] gave stable assay Renilla, run 1 = 6815; stable assay firefly, run 1 = 3.29e5; inactive.
After knock-down of CG2841 [DRSC18824] the results were stable assay Renilla, run 1 = 6079; stable assay firefly, run 1 = 3.57e5; inactive.
CG2841 [DRSC22106] scored stable assay Renilla, run 1 = 8554; stable assay firefly, run 1 = 5.78e5; inactive.
Against UQCR-6.4 [DRSC06454], the values are stable assay Renilla, run 1 = 6298; stable assay firefly, run 1 = 3.93e5; inactive.
For CG8679 [DRSC03109], the entry reads stable assay Renilla, run 1 = 6250; stable assay firefly, run 1 = 3.23e5; inactive.
For Or19b + Or19a [DRSC22604], the entry reads stable assay Renilla, run 1 = 4067; stable assay firefly, run 1 = 3.98e5; inactive.
For Mec2 [DRSC20054] the deposit lists stable assay Renilla, run 1 = 7124; stable assay firefly, run 1 = 4.23e5; inactive.
Gr32a [DRSC02400] gave stable assay Renilla, run 1 = 7062; stable assay firefly, run 1 = 3.24e5; inactive.
With knock-down of Mocs1 [DRSC11225], the record shows stable assay Renilla, run 1 = 4840; stable assay firefly, run 1 = 3.41e5; inactive.
Depletion of MED8 [DRSC06426] gave: siRNA reporter hit score -3; stable assay Renilla, run 1 = 5674; stable assay firefly, run 1 = 3.80e5; inactive.
Silencing of CG15029 (retired record) [DRSC19610] came out at: stable assay Renilla, run 1 = 5562; stable assay firefly, run 1 = 4.43e5; inactive.
